This is one part of the list.
Experiments:
Experiment in all cases: log2 fold change, soluble protein after heating vs DMSO (PISA); higher = thermal stabilisation; K562 lysate, 10 uM; active = over 0.2 and 3.5 SD of the protein, either way, in both replicates (recomputed)
lapatinib = compound: CS(=O)(=O)CCNCc1ccc(-c2ccc3ncnc(Nc4ccc(OCc5cccc(F)c5)c(Cl)c4)c3c2)o1 [lapatinib]
Outline: (§1)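 K562 pellets were dounce-homogenised in PBS pH 7.4 containing 1 mM MgCl2, and the crude extract, at 1 mg/mL protein, was exposed to 10 μM compound for 30 min. Aliquots were heated for 3 min across 48°C-58°C, pooled, brought to 0.5% NP-40 at 4°C and spun at 21,000xg for 90 min, with the supernatant taken as soluble protein. TMTpro 16plex LC-MS/MS with equalised channel sums quantified that protein. Values are log-two fold changes in thermal stability relative to solvent controls, taken from duplicates.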

By UniProt entry, the sequences of proteins in these tests, tags left out. Where a name states a change or a piece, a line headed by the entry shows the natural chain unless it says otherwise.
UniProt Q96I36: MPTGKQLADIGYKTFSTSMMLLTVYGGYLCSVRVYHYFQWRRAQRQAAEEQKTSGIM
UniProt Q96F85: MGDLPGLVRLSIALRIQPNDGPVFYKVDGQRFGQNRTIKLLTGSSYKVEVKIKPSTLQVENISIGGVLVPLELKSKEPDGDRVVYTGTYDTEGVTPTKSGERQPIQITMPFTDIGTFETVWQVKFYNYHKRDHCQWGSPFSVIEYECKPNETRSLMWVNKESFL
UniProt Q17RY0: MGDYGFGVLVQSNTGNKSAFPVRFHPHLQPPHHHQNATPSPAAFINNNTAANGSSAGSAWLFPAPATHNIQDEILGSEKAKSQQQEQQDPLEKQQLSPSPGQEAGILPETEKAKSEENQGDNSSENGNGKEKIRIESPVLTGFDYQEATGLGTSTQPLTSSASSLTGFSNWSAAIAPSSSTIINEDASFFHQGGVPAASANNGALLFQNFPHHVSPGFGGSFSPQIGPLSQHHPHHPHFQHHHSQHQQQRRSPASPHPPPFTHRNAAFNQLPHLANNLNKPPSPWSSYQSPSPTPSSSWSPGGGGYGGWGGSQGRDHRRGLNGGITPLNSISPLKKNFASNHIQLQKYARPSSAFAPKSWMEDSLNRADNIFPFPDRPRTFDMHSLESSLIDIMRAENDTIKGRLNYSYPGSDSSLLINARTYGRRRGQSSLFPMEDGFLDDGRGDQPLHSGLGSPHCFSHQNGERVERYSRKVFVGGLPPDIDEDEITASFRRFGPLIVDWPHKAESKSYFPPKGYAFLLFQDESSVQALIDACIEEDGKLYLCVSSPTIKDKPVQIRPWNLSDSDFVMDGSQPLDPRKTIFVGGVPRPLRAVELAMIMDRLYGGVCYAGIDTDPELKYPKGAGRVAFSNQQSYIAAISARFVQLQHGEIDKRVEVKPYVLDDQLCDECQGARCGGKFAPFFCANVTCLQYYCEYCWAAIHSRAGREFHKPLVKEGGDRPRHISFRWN
UniProt Q9BWP8: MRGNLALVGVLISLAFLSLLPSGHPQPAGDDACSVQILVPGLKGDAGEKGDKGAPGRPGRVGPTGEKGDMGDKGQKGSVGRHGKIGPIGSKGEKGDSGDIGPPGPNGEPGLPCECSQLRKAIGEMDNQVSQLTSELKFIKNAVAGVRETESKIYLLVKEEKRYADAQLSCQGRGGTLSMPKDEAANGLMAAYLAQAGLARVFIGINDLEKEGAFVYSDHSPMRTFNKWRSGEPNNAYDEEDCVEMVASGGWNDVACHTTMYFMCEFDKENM
UniProt Q8N9A8: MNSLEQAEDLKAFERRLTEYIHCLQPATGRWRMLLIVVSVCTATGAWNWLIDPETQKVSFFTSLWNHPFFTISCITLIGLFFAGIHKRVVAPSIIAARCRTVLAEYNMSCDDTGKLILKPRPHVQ
UniProt Q12887: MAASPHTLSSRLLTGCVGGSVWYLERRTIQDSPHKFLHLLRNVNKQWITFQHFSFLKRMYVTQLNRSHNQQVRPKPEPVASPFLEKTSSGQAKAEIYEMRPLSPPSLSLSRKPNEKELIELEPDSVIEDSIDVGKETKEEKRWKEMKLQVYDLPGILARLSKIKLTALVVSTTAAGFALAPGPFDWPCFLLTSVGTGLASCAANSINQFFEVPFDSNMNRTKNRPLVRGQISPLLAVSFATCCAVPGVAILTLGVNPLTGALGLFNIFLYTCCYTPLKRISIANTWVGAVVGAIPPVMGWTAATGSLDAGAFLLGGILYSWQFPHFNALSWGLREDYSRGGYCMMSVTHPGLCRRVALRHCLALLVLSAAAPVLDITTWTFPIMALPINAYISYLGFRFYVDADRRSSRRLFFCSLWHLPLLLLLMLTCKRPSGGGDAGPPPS
UniProt Q5TA50: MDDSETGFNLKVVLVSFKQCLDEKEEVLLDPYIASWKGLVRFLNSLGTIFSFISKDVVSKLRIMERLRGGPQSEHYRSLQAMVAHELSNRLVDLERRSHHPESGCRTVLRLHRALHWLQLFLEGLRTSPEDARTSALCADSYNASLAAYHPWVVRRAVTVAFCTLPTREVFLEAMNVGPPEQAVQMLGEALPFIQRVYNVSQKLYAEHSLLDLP
UniProt Q86WW8: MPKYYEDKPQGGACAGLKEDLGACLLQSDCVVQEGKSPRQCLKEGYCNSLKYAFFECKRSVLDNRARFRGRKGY
UniProt Q8N4Y2: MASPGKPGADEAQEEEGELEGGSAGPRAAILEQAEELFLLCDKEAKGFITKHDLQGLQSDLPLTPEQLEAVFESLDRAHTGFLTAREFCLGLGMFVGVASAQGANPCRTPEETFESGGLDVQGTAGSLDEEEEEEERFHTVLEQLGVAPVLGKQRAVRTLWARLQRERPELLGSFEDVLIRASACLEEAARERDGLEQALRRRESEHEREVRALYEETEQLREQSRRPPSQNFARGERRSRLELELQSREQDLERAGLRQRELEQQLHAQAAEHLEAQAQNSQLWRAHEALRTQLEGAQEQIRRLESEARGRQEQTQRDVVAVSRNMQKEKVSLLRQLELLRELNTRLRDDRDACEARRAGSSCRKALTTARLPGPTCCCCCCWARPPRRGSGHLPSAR
UniProt Q8N137: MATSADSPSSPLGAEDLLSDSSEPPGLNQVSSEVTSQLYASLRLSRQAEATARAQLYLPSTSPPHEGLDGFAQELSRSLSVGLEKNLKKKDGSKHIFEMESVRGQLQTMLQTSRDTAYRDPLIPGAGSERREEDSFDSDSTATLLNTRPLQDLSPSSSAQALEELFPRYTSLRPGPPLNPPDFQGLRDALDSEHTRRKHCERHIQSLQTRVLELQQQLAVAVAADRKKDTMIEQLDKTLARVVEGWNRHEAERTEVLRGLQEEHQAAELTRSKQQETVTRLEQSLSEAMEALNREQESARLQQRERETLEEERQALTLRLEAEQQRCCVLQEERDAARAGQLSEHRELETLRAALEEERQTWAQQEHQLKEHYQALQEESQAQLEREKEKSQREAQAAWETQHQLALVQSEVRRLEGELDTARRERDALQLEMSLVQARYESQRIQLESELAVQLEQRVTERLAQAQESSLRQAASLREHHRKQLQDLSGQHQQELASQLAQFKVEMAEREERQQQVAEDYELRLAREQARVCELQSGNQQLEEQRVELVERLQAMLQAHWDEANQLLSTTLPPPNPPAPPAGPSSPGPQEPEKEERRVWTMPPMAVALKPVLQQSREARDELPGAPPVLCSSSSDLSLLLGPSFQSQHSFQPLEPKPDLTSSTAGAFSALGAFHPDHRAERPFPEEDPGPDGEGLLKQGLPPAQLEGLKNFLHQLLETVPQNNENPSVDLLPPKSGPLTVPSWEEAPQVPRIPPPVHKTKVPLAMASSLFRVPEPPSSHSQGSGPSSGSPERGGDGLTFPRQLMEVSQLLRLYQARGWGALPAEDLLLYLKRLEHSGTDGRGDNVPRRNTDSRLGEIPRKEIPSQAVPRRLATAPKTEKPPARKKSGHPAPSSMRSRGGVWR
UniProt Q8IWV2: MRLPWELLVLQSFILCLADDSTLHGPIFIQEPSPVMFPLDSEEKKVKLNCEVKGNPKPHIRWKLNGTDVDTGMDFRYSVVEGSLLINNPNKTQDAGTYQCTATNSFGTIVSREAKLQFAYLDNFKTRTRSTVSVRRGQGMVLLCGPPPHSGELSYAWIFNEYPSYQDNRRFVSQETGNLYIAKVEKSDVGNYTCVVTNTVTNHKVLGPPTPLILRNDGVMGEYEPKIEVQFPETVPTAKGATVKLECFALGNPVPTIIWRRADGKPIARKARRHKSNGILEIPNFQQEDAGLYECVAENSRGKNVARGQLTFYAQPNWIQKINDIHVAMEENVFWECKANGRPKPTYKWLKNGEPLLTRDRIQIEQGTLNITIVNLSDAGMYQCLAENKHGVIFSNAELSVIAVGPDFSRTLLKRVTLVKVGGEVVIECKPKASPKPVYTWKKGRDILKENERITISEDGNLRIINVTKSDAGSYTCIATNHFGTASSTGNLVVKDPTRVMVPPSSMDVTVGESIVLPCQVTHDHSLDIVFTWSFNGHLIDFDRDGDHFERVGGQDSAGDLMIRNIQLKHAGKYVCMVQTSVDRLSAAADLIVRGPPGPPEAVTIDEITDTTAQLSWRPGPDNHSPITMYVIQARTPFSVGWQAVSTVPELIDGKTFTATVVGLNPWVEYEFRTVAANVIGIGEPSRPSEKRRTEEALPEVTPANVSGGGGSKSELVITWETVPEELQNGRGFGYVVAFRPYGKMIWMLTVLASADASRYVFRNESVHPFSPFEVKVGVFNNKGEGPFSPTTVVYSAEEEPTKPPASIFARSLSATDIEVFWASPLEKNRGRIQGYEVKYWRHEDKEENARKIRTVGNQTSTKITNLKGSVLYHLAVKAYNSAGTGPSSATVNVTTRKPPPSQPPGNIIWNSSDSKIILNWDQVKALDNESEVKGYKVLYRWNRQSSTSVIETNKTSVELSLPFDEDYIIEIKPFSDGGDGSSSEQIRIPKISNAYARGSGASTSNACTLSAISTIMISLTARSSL
UniProt P12109: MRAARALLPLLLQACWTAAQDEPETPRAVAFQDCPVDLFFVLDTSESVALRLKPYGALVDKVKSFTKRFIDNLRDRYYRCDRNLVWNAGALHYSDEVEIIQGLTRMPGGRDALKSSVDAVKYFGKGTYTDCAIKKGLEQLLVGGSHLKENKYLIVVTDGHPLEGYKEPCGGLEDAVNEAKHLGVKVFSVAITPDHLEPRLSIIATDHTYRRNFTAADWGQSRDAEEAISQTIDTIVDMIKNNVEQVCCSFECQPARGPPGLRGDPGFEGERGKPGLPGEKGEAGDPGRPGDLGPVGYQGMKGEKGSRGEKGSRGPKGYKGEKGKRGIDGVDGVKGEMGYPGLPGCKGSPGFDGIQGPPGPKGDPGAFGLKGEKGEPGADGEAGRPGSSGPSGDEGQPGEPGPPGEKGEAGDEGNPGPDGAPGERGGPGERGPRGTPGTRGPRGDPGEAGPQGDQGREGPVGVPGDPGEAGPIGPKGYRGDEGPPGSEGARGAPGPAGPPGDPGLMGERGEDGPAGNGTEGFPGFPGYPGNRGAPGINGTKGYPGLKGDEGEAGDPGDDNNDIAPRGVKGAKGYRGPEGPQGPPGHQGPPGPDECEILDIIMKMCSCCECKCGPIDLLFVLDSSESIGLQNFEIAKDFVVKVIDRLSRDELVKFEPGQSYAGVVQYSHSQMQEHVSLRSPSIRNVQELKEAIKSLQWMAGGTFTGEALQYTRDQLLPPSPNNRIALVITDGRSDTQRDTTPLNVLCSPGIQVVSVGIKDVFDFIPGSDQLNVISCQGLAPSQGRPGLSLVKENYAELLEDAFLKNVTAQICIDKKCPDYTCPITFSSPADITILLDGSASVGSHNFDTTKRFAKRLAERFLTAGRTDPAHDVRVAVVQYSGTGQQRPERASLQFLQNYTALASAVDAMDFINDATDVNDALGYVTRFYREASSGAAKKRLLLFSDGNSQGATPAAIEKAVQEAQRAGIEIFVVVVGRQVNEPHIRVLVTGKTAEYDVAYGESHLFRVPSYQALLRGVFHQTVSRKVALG
UniProt Q9NRU3: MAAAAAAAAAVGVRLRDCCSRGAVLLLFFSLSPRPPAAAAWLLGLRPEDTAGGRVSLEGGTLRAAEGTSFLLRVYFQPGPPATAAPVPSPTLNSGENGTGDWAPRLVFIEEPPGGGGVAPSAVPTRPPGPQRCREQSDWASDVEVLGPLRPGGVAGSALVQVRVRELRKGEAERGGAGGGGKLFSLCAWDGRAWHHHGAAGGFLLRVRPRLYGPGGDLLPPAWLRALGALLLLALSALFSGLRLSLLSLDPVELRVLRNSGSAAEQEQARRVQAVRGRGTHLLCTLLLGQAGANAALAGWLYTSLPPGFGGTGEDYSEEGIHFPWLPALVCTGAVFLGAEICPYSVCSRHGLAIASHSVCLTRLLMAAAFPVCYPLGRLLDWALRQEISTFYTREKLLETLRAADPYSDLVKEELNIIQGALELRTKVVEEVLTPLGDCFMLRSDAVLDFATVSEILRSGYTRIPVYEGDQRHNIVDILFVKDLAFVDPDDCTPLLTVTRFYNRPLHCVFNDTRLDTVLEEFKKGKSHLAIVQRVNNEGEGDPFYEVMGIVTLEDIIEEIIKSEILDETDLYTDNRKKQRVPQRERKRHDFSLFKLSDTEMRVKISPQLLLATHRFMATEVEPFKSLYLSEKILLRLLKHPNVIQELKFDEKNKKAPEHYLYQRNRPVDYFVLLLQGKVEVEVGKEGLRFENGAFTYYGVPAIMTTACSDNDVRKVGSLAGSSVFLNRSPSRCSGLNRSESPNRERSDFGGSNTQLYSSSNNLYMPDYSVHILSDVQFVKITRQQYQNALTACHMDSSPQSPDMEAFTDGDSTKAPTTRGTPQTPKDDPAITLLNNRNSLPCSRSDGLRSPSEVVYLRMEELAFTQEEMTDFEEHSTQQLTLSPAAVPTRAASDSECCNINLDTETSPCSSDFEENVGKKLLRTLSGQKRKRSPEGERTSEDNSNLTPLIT
UniProt O14810: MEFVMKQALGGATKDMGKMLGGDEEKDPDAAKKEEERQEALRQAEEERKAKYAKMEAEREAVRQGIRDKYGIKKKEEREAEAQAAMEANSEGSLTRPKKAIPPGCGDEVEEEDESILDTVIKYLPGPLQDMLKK

crizotinib = compound: C[C@@H](Oc1cc(-c2cnn(C3CCNCC3)c2)cnc1N)c1c(Cl)ccc(F)c1Cl [crizotinib]
Outline: as §1

doramapimod = compound: Cc1ccc(-n2nc(C(C)(C)C)cc2NC(=O)Nc2ccc(OCCN3CCOCC3)c3ccccc23)cc1 [doramapimod]
Outline: as §1

nilotinib = compound: Cc1cn(-c2cc(NC(=O)c3ccc(C)c(Nc4nccc(-c5cccnc5)n4)c3)cc(C(F)(F)F)c2)cn1 [nilotinib]
Outline: as §1

[1] = compound: Cc1nc(Nc2n[nH]c3c2CN(C(=O)N[C@H](CN(C)C)c2ccccc2)C3(C)C)c2sccc2n1
Outline: as §1

[2] = compound: Cc1ncc(-c2ccnc(Nc3ccc(S(C)(=O)=O)cc3)n2)n1C(C)C
Outline: as §1

quisinostat = compound: Cn1cc(CNCC2CCN(c3ncc(C(=O)NO)cn3)CC2)c2ccccc21 [quisinostat]
Outline: as §1

tipifarnib = compound: Cn1cncc1[C@@](N)(c1ccc(Cl)cc1)c1ccc2c(c1)c(-c1cccc(Cl)c1)cc(=O)n2C [tipifarnib]
Outline: as §1

[3] = compound: NC(=O)Nc1cc(-c2cccc(F)c2)sc1C(=O)N[C@H]1CCCNC1
Outline: as §1

[4] = compound: NC(=O)c1cnc(N[C@@H]2CCCC[C@@H]2N)nc1Nc1cccc(-n2nccn2)c1
Outline: as §1

[5] = compound: NC1(c2ccc(-c3nc4ccn5c(=O)[nH]nc5c4cc3-c3ccccc3)cc2)CCC1
Outline: as §1

pictilisib = compound: CS(=O)(=O)N1CCN(Cc2cc3nc(-c4cccc5[nH]ncc45)nc(N4CCOCC4)c3s2)CC1 [pictilisib]
Outline: as §1

duvelisib = compound: C[C@H](Nc1ncnc2nc[nH]c12)c1cc2cccc(Cl)c2c(=O)n1-c1ccccc1 [duvelisib]
Outline: as §1

tozasertib = compound: Cc1cc(Nc2cc(N3CCN(C)CC3)nc(Sc3ccc(NC(=O)C4CC4)cc3)n2)n[nH]1 [tozasertib]
Outline: as §1

bafetinib = compound: Cc1ccc(NC(=O)c2ccc(CN3CC[C@H](N(C)C)C3)c(C(F)(F)F)c2)cc1Nc1nccc(-c2cncnc2)n1 [bafetinib]
Outline: as §1

dasatinib = compound: Cc1nc(Nc2ncc(C(=O)Nc3c(C)cccc3Cl)s2)cc(N2CCN(CCO)CC2)n1 [dasatinib]
Outline: as §1

[6] = compound: Cn1cc(-c2ccc3c(c2)CCN3C(=O)Cc2cccc(C(F)(F)F)c2)c2c(N)ncnc21
Outline: as §1

[7] = compound: C[C@H](C1=CC=C(C=C1)C(=O)NC2=C3C=CNC3=NC=C2)N
Outline: as §1

gandotinib = compound: Cc1cc(Nc2cc(CN3CCOCC3)c3nc(C)c(Cc4ccc(Cl)cc4F)n3n2)n[nH]1 [gandotinib]
Outline: as §1

[8] = compound: Cc1cccc(CC(=O)N2CCc3c2ccc(-c2cn(C)c4ncnc(N)c24)c3F)n1
Outline: as §1

Measured: log2 fold change

COX14 (UniProt Q96I36)
inactive: lapatinib -0.052 | crizotinib -0.071 | doramapimod 0.037 | nilotinib -0.01 | [1] -0.029 | [2] 0.01 | quisinostat -0.003 | tipifarnib 0.043 | [3] 0.07 | [4] -0.101 | [5] 0.007

COMMD3-BMI1 (UniProt R4GMX3)
inactive: lapatinib -0.042 | pictilisib -0.088 | crizotinib -0.044 | duvelisib 0.017 | tozasertib 0.083 | doramapimod 0.011 | bafetinib -0.021 | nilotinib 0.034 | [1] 0.028 | dasatinib -0.047 | [2] 0.07 | [6] 0.095 | quisinostat -0.001 | tipifarnib -0.04 | [3] -0.009 | [4] 0.043 | [5] 0.151

CNRIP1 (UniProt Q96F85)
inactive: lapatinib -0.198 | pictilisib -0.03 | crizotinib -0.08 | duvelisib -0.138 | doramapimod 0.403 | bafetinib 0.232 | dasatinib -0.026 | [6] -0.058 | quisinostat -0.292 | [3] 0.064 | [4] 0.083 | [5] -0.046

CPEB4 (UniProt Q17RY0)
inactive: lapatinib -0.059 | pictilisib -0.056 | [7] -0.117 | duvelisib -0.132 | gandotinib 0.147 | tozasertib 0.037 | bafetinib 0.046 | [8] -0.148 | nilotinib -0.078 | [1] 0.101 | dasatinib -0.143 | [2] 0.057 | [6] -0.027 | tipifarnib 0.018 | [4] 0.049 | [5] -0.061

COLEC11 isoform 10 (UniProt Q9BWP8)
inactive: pictilisib -0.062 | [7] 0.006 | duvelisib 0.007 | gandotinib -0.024 | tozasertib 0.045 | bafetinib -0.242 | [8] 0.017 | dasatinib -0.009 | [6] 0.077 | [5] 0.032

CNEP1R1 isoform 2 (UniProt Q8N9A8)
inactive: pictilisib 0.003 | bafetinib -0.034 | nilotinib -0.178 | [1] 0.16 | [2] -0.096 | tipifarnib -0.017

COX10 (UniProt Q12887)
inactive: crizotinib -0.01 | duvelisib 0.06 | tozasertib 0.004 | doramapimod -0.039 | dasatinib -0.002 | [6] 0.019 | quisinostat 0.016 | [3] -0.149

CPTP (UniProt Q5TA50)
inactive: crizotinib 0.016 | [7] -0.041 | duvelisib -0.055 | gandotinib -0.138 | tozasertib -0.125 | doramapimod 0.03 | [8] 0.073 | nilotinib 0.062 | [1] -0.034 | dasatinib -0.08 | [2] -0.067 | [6] 0.304 | quisinostat -0.082 | tipifarnib -0.084 | [3] 0.08 | [5] 0.006

COL12A1 (UniProt Q99715)
inactive: lapatinib -0.117 | crizotinib -0.031 | duvelisib 0.086 | tozasertib -0.021 | doramapimod 0.88 | dasatinib -0.097 | [6] 0.198 | quisinostat -0.056 | [3] 0.166 | [4] 0.827 | [5] -0.154

COA5 (UniProt Q86WW8)
inactive: pictilisib -0.01 | crizotinib 0.019 | [7] 0.09 | duvelisib -0.049 | gandotinib -0.113 | tozasertib -0.094 | doramapimod -0.054 | bafetinib -0.009 | [8] -0.093 | dasatinib 0.007 | [6] 0.01 | quisinostat 0.035 | [3] 0.025 | [5] 0.004

CRACR2B (UniProt Q8N4Y2)
inactive: duvelisib 0.202 | dasatinib -0.059 | [6] 0.042 | [5] 0.015

CNTROB isoform 2 (UniProt Q8N137)
inactive: duvelisib -0.216 | dasatinib 0.379 | [6] 0.311 | [5] -0.291

COL6A3 (UniProt P12111)
inactive: pictilisib -0.019 | crizotinib -0.023 | [7] -0.04 | duvelisib 0.013 | gandotinib -0.036 | doramapimod 0.032 | bafetinib 0.036 | [8] 0.048 | nilotinib 0.05 | [1] 0.151 | dasatinib 0.032 | [2] 0.02 | [6] -0.055 | quisinostat 0.123 | tipifarnib -0.009 | [3] 0 | [5] -0.155

COP1 (UniProt Q8NHY2)
inactive: lapatinib 0.006 | crizotinib -0.007 | [7] -0.078 | duvelisib -0.017 | gandotinib 0.105 | doramapimod -0.055 | [8] -0.124 | nilotinib 0.123 | [1] 0.019 | dasatinib 0.017 | [2] 0.054 | [6] 0.019 | quisinostat -0.023 | tipifarnib -0.114 | [3] 0.044 | [4] 0.027 | [5] 0.163

CPA4 (UniProt Q9UI42)
inactive: lapatinib 0.125 | pictilisib 0.393 | crizotinib 0.053 | [7] 0.239 | gandotinib 0.241 | doramapimod -0.25 | bafetinib 0.104 | [8] -0.112 | quisinostat 0.025 | [3] -0.067 | [4] -0.159 | [5] 0.014

CNTN4 (UniProt Q8IWV2)
inactive: lapatinib -0.052 | pictilisib -0.066 | crizotinib -0.268 | [7] -0.432 | gandotinib 0.545 | tozasertib -0.182 | doramapimod -0.067 | bafetinib -0.145 | [8] 0.484 | nilotinib 0.127 | [1] -0.06 | [2] 0.306 | tipifarnib -0.006 | [3] 0.151 | [4] 0.072 | [5] -0.024
active: quisinostat -0.561

COL6A1 (UniProt P12109)
inactive: [7] 0.11 | gandotinib -0.073 | [8] 0 | nilotinib -0.219 | [1] -0.326 | [2] 0.029 | tipifarnib 0.054

CNNM1 (UniProt Q9NRU3)
inactive: duvelisib 0.013 | tozasertib -0.05 | nilotinib 0.016 | [1] 0.03 | dasatinib -0.022 | [2] 0.006 | [6] 0.005 | tipifarnib -0.031 | [5] -0.019

CPLX1 (UniProt O14810)
active: dasatinib 1.05
inactive: lapatinib -0.095 | duvelisib -0.001 | tozasertib 0.167 | [6] -0.134 | [4] 0.178

2 consecutive records from above, for reference:
CRACR2B (UniProt Q8N4Y2)
inactive: duvelisib 0.202 | dasatinib -0.059 | [6] 0.042 | [5] 0.015

CNTROB isoform 2 (UniProt Q8N137)
inactive: duvelisib -0.216 | dasatinib 0.379 | [6] 0.311 | [5] -0.291
